Values from PubChem BioAssay AID504791 (Drosophila RNAi Screening Center, 2011)
Aim: 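Genes of the fly required for silencing by miRNA, siRNA or endo-siRNA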 (primary screen). Cell system: Drosophila S2-derived reporter cells. Reagents: long dsRNA against Drosophila genes, about 150-250 ng dsRNA per well (siRNA assay); about 80-120 ng (miRNA assay). Duration: about 5 days (siRNA assay); about 4 days (miRNA assay). Challenge: copper sulfate induction of reporters: 25 µM (siRNA assay); 200 mM stated (miRNA assay), 1-2 days before reading. Measured: 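Dual luciferase assay: Renilla to firefly signal ratio in each well, scaled to the mean ratio of its plate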. Call rule: 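First-pass picks had plate-scaled ratios over 1.5 for the siRNA assay, over 1.6 for the miRNA assay, or under 0.6; two distinct dsRNAs had to score alike on retest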.
The screen tested about 23,000 reagents; below is an unselected part of those that have a named target and a result. In the full data, 199 (0.86%) got an active call. 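Plate-scaled ratios behind the calls are not deposited; printed light signals are raw; many rows marked increased or decreased are still called inactive.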 Names joined by + are all predicted targets of the reagent. The record does not give: the direction of the score.

The opening 7 records, ahead of the listing:
no.	gene	DRSC id	stable siRNA reporter change	miRNA reporter change	stable assay Renilla, run 1 (luminescence)	stable assay firefly, run 1 (luminescence)	call
1	CG15472 (GeneID 31409)	DRSC18055			5999	2.83e5	inactive
2	RagC-D (GeneID 35793)	DRSC07239	reporter ratio lowered past the hit cutoff		3911	3.47e5	inactive
3	CG11307 (GeneID 40400)	DRSC11648			3359	3.99e5	inactive
4	Fit1 (GeneID 38488)	DRSC08450			8043	4.13e5	inactive
5	dyl (GeneID 38531)	DRSC08466			7796	3.31e5	inactive
6	dyl (GeneID 38531)	DRSC08467			5982	4.08e5	inactive
7	CG12307 (GeneID 34584)	DRSC02159			8335	5.13e5	inactive

Main list, repeating the preview:
no.	gene	DRSC id	stable siRNA reporter change	miRNA reporter change	stable assay Renilla, run 1 (luminescence)	stable assay firefly, run 1 (luminescence)	call
1	CG15472 (GeneID 31409)	DRSC18055			5999	2.83e5	inactive
2	RagC-D (GeneID 35793)	DRSC07239	reporter ratio lowered past the hit cutoff		3911	3.47e5	inactive
3	CG11307 (GeneID 40400)	DRSC11648			3359	3.99e5	inactive
4	Fit1 (GeneID 38488)	DRSC08450			8043	4.13e5	inactive
5	dyl (GeneID 38531)	DRSC08466			7796	3.31e5	inactive
6	dyl (GeneID 38531)	DRSC08467			5982	4.08e5	inactive
7	CG12307 (GeneID 34584)	DRSC02159			8335	5.13e5	inactive
8	CG30357 (GeneID 246563)	DRSC22472			3651	2.95e5	inactive
9	Tmep (GeneID 38185)	DRSC08215			9062	2.72e5	inactive
10	Gr32a (GeneID 34545)	DRSC02400			7062	3.24e5	inactive
11	NaPi-III (GeneID 39255)	DRSC10893			8528	4.47e5	inactive
12	NaPi-III (GeneID 39255)	DRSC10894	reporter ratio raised past the hit cutoff		4435	1.73e5	inactive
13	NaPi-III (GeneID 39255)	DRSC22953			4424	3.91e5	inactive
14	Nlp (GeneID 43560)	DRSC16759			7613	4.49e5	inactive
15	Cap-H2 (GeneID 41289)	DRSC14908			6651	3.87e5	inactive
16	CG18787 + CG18789	DRSC02698			8683	3.96e5	inactive
17	CG11726 (GeneID 39275)	DRSC09858			6407	4.18e5	inactive
18	CG34056 (GeneID 38106)	DRSC08374			6299	4.63e5	inactive
19	Ork1 (GeneID 32020)	DRSC20266			6571	4.89e5	inactive
20	Zcchc7 (GeneID 39883)	DRSC11099			7415	2.66e5	inactive
21	Rpn8 (GeneID 37894)	DRSC04624			5039	2.02e5	inactive
22	Sec61beta (GeneID 46080)	DRSC07548			4656	3.42e5	inactive
23	Sec61beta (GeneID 46080)	DRSC21512			8165	4.15e5	inactive
24	Unc-115b + p24-2	DRSC16492		reporter ratio raised past the hit cutoff	7519	4.38e5	inactive
25	Secp43 (GeneID 33652)	DRSC00454			9589	3.76e5	inactive
26	CG14630 (GeneID 44620)	DRSC18166			5380	3.75e5	inactive
27	CG14630 (GeneID 44620)	DRSC18653			6655	3.36e5	inactive
28	MFS9 (GeneID 42426)	DRSC15560			7373	2.68e5	inactive
29	exex (GeneID 38884)	DRSC10972			6166	3.46e5	inactive
30	CG4960 (GeneID 43115)	DRSC15684			6090	2.77e5	inactive
31	CG15580 (GeneID 40743)	DRSC12266			6650	3.54e5	inactive
32	IKKepsilon (GeneID 35329)	DRSC03550			6670	3.39e5	inactive
33	CG14644 (GeneID 40536)	DRSC12230			6743	3.52e5	inactive
34	CG15408 (GeneID 33548)	DRSC00423			7043	3.42e5	inactive
35	Antdh (GeneID 32058)	DRSC20307			4247	3.43e5	inactive
36	CG5180 (GeneID 192508)	DRSC15731			8412	4.43e5	inactive
37	atilla (GeneID 34647)	DRSC02971			7351	4.87e5	inactive
38	p24-1 (GeneID 32140)	DRSC19827			5531	4.52e5	inactive
39	Uros1 (GeneID 31817)	DRSC18191			8517	4.31e5	inactive
40	Inx2 (GeneID 31646)	DRSC18783			7650	3.68e5	inactive
41	CG7322 (GeneID 32880)	DRSC20036			7138	3.77e5	inactive
42	scrib (GeneID 44448)	DRSC13774			5871	3.54e5	inactive
43	scrib (GeneID 44448)	DRSC15809	reporter ratio lowered past the hit cutoff		7504	8.20e5	inactive
44	scrib (GeneID 44448)	DRSC17051			6463	4.69e5	inactive
45	temp (GeneID 31212)	DRSC18271			6187	2.91e5	inactive
46	CG42322 (GeneID 42455)	DRSC15112			7863	3.21e5	inactive
47	CG42322 (GeneID 42455)	DRSC15113			6603	3.29e5	inactive
48	CG42322 (GeneID 42455)	DRSC15114			6071	2.76e5	inactive
49	Rnf146 (GeneID 40144)	DRSC11045			7402	5.05e5	inactive
50	CG12017 (GeneID 38404)	DRSC08225			5428	3.85e5	inactive
51	Sec5 (GeneID 33563)	DRSC00714			26347	94081	inactive
52	js (GeneID 41986)	DRSC15004			7011	3.60e5	inactive
53	CG9098 (GeneID 33840)	DRSC03136			27307	3.09e5	inactive
54	CG9098 (GeneID 33840)	DRSC22501			3360	3.52e5	inactive
55	cmet (GeneID 53561)	DRSC03511			7119	4.12e5	inactive
56	CG33232 (retired record) (GeneID 2769004)	DRSC08187			9163	3.06e5	inactive
57	CG33232 (retired record) (GeneID 2769004)	DRSC08495			4691	3.41e5	inactive
58	Zip88E (GeneID 41847)	DRSC15562			8311	4.11e5	inactive
59	CG8478 (GeneID 41194)	DRSC16427			5862	4.04e5	inactive
60	mus301 (GeneID 38905)	DRSC10939			5950	3.83e5	inactive
61	CG33704 (GeneID 3772359)	DRSC03838			5951	4.04e5	inactive
62	BaraA1 + BaraA2	DRSC05417			5615	3.67e5	inactive
63	Ugt303B1 (GeneID 42775)	DRSC15141			5775	3.11e5	inactive
64	Megf8 (GeneID 34099)	DRSC03058			13698	3.26e5	inactive
65	CG3117 (GeneID 33484)	DRSC00568			8647	5.78e5	inactive
66	Gel (GeneID 46008)	DRSC12350			8625	3.78e5	inactive
67	Fuca (GeneID 3772574)	DRSC10591			6674	3.69e5	inactive
68	ORY (GeneID 3355174)	DRSC22883			3251	4.41e5	inactive
69	CG33127 (GeneID 318893)	DRSC00011			6523	4.72e5	inactive
70	Zip89B (GeneID 41975)	DRSC16128			8563	4.64e5	inactive
71	CG6984 (GeneID 36926)	DRSC07013			11314	5.55e5	inactive
72	TBC1D16 (GeneID 34431)	DRSC02841			7470	4.35e5	inactive
73	UQCR-14L (GeneID 43369)	DRSC15288			5682	3.68e5	inactive
74	UQCR-14L (GeneID 43369)	DRSC22425			4799	3.01e5	inactive
75	Nipped-A (GeneID 35483)	DRSC04882			72582	1.29e6	inactive
76	Nipped-A (GeneID 35483)	DRSC04883	reporter ratio lowered past the hit cutoff		6134	7.80e5	active
77	Nipped-A (GeneID 35483)	DRSC04884			5492	4.82e5	inactive
78	Nipped-A (GeneID 35483)	DRSC07738	reporter ratio lowered past the hit cutoff		4879	4.85e5	inactive
79	Nipped-A (GeneID 35483)	DRSC22386	reporter ratio lowered past the hit cutoff		8485	8.38e5	active
80	CG12128 (GeneID 36042)	DRSC06104			7535	4.42e5	inactive
81	IFT46 (GeneID 35114)	DRSC02462			6823	4.80e5	inactive
82	CG1724 (GeneID 33097)	DRSC20548			6384	4.67e5	inactive
83	CG18135 (GeneID 40073)	DRSC10295			9060	4.15e5	inactive
